# Assay results: PubChem BioAssay (EPA / NIEHS)
# The chains behind the UniProt entries cited, without tags or fusion partners. Where a name states a change or a piece, a line headed by the entry shows the natural chain unless it says otherwise.
# UniProt P10275: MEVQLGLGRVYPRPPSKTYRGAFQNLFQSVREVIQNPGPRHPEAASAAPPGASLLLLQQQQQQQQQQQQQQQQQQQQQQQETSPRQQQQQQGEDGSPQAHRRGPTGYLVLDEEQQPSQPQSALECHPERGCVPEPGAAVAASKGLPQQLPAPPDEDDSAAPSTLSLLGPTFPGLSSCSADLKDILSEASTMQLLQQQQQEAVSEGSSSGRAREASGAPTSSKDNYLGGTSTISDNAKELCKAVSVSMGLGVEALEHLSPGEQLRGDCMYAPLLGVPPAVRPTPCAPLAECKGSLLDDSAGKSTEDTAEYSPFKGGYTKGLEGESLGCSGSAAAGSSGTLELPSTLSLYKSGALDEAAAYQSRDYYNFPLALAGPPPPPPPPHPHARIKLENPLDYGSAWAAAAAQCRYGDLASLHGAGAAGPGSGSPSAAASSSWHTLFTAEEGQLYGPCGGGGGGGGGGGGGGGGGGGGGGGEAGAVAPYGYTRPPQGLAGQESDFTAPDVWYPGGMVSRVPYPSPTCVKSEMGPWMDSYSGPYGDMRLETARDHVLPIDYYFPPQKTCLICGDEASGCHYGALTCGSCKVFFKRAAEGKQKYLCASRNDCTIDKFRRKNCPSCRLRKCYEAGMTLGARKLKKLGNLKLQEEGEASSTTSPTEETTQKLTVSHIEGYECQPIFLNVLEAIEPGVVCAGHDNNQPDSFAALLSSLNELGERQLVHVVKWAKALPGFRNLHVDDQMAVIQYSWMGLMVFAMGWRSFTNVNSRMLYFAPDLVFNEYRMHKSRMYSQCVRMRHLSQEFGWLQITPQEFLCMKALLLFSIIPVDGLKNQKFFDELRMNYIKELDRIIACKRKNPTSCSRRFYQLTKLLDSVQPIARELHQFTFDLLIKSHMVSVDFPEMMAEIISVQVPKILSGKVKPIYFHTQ
# UniProt Q03181: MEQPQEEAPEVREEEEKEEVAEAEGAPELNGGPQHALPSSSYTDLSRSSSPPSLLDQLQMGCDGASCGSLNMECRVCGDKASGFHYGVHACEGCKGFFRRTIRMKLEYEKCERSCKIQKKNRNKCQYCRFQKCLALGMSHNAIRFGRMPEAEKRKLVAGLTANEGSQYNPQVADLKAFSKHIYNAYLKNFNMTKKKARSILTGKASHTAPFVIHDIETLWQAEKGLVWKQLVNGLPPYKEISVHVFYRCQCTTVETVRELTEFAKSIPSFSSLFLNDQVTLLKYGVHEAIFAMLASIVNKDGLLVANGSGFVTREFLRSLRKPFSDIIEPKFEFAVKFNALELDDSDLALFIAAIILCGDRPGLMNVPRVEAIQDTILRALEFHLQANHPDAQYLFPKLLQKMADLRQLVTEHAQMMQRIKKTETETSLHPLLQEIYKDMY
# UniProt P11473: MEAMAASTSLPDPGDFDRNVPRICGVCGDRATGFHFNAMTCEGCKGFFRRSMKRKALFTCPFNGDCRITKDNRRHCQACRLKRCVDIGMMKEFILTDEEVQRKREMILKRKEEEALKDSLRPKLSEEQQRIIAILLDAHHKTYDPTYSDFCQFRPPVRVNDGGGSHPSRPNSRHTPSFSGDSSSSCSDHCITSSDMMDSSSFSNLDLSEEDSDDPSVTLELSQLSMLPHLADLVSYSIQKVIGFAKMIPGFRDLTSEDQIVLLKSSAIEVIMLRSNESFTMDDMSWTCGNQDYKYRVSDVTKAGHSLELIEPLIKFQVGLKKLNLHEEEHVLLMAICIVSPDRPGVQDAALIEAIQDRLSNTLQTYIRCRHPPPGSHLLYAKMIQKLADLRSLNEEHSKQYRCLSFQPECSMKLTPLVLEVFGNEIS
# UniProt P19793: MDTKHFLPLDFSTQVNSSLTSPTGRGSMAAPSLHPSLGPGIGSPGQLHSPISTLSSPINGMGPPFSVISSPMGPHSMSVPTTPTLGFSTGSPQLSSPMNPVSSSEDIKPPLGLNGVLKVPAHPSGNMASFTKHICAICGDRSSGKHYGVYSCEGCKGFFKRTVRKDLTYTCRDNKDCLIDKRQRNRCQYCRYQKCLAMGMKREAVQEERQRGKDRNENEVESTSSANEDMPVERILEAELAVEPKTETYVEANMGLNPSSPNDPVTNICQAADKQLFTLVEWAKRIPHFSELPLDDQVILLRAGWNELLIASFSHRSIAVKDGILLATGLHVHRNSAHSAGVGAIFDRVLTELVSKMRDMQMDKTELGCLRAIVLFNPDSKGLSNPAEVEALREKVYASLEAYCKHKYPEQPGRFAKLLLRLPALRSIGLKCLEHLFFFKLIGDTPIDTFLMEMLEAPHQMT
# UniProt P04637, whole entry, looked up: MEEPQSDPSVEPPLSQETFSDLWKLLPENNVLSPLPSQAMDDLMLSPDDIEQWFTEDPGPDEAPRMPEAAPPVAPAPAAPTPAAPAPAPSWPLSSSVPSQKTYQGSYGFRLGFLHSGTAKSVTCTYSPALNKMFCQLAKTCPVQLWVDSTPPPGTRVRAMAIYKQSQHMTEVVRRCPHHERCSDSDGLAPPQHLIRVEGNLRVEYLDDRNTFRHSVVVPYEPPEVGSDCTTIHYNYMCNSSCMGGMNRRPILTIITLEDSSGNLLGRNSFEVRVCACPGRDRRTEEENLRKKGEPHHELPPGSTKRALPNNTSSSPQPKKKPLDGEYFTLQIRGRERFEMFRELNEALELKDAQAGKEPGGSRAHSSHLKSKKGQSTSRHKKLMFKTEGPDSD
# UniProt P03372, whole entry, looked up: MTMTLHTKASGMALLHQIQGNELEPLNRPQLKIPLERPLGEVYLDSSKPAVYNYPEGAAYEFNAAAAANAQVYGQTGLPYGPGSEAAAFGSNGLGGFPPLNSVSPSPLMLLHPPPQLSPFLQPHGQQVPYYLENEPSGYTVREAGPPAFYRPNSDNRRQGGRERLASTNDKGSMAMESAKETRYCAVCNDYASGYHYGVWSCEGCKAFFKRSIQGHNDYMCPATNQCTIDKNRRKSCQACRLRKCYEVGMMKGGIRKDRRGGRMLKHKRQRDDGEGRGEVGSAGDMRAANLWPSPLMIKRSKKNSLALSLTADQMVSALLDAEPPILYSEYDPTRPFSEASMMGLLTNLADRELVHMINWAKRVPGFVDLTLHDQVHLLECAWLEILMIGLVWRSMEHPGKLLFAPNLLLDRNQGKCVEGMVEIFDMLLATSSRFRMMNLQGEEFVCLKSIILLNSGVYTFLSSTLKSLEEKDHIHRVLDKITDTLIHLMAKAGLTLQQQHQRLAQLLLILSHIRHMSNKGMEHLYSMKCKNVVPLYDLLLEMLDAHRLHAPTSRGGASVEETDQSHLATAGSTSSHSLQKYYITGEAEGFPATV
# UniProt P19785, whole entry, looked up: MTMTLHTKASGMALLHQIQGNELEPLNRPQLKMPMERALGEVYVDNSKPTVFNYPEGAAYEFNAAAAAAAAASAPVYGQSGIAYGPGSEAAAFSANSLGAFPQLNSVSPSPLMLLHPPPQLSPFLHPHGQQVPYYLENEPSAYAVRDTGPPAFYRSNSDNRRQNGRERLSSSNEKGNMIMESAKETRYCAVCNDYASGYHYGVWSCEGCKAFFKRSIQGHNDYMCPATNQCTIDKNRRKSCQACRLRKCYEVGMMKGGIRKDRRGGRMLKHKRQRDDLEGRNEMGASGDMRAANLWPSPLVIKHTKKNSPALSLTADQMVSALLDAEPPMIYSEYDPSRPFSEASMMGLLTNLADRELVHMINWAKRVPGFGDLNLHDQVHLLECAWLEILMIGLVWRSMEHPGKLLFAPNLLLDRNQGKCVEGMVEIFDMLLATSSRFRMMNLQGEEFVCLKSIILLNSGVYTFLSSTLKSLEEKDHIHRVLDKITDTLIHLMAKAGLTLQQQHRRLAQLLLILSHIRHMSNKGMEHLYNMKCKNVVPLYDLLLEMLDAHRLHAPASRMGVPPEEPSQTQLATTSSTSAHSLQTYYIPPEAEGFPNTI
# UniProt P62508: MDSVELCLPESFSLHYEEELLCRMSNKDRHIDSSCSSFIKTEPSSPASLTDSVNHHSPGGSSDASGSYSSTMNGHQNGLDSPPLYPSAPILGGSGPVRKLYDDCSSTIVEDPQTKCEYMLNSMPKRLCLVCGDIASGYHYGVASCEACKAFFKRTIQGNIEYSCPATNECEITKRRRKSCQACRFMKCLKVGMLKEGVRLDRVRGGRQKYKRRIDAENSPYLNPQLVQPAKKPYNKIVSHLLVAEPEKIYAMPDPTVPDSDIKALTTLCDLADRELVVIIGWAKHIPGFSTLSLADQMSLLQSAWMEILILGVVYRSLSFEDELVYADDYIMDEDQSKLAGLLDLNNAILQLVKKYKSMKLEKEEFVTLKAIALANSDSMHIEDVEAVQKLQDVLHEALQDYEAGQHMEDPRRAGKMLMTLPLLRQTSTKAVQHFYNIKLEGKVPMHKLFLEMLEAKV
# UniProt Q96RI1: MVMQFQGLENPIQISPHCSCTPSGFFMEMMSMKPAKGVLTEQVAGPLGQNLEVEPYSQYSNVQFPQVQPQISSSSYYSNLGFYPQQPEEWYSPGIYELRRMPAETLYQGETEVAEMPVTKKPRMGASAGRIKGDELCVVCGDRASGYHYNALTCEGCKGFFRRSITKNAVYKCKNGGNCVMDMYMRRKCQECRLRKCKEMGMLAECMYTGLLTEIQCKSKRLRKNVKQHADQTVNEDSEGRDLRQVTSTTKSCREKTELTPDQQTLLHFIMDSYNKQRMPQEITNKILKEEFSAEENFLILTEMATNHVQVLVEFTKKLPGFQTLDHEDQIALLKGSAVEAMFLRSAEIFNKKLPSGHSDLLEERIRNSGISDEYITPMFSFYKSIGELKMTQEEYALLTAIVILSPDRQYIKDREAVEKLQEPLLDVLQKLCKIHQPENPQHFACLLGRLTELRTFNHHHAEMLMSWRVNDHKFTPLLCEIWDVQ
# UniProt O75469: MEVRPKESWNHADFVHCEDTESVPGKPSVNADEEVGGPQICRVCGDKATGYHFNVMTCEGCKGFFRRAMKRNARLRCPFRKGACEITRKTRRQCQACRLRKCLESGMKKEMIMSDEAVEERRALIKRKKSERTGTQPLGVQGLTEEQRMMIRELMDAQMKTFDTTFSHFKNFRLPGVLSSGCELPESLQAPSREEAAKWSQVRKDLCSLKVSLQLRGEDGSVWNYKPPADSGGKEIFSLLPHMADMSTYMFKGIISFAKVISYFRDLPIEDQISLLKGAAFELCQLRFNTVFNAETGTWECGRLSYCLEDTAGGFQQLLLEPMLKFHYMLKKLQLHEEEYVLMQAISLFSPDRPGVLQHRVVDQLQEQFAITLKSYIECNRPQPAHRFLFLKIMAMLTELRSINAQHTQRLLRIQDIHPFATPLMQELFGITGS
# Values joined by “and” are separate entries in the source; they are usually repeats but may differ in a detail not shown here. Equal entries are not always repeated. Inconclusive results, whose numbers are uncertain, are shown with a selection of clear calls. For some assays here: Where the call is inconclusive, the potency comes from a doubtful curve fit. Where a structure was tested more than once in an assay, its records may differ in their call. Active and inactive are the calls of the source. How the source made its calls: active means hit-call score of the fitted dose curve at least 0.9, where 1 is the maximum; inconclusive means response in the unintended direction; inactive means score below 0.9.
# How the values were obtained:
# [1] = biological target: Androgen receptor (Homo sapiens) (UniProt P10275); test: ATG_AR_TRANS: Attagene TRANS-FACTORIAL HepG2 Assay for human Androgen Receptor (AR) (AID 2282973); settings: HepG2 Attagene TRANS-FACTORIAL AR reporter transcription
# Procedure, shortened: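 Chimeric nuclear receptor–Gal4 activity was assessed in human HepG2 hepatocytes after 24 h chemical dosing. Induced reporter mRNA was detected via labelled RT-PCR fragments on capillary electrophoresis, and gain of signal was analysed against DMSO.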
# [2] = ATG_M_32_TRANS: Attagene TRANS-FACTORIAL HepG2 Assay for M32 Transcription Factor (Internal Marker) (AID 2282984); settings: HepG2 Attagene TRANS M32 internal marker reporter;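 on outcome: transcript level of a background control reporter unit measured by RT-PCR and capillary electrophoresis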
# Procedure, shortened: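 Cell-based TRANS-format assay in HepG2: exogenous chimeric GAL4 reporter units transiently expressed, compounds applied 24 h. Reporter mRNA detected by RT-PCR plus capillary electrophoresis; this readout is an internal background marker.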
# [3] = biological target: human Peroxisome Proliferator-activated Receptor delta (PPARd), PPARD (gene 5467) (UniProt Q03181); test: ATG_PPARd_TRANS: Attagene TRANS-FACTORIAL HepG2 Assay for human Peroxisome Proliferator-activated Receptor delta (PPARd) (AID 2283002)
# Procedure, shortened: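 Transient HepG2 transfection (multiple GAL4-UAS RTUs, chimeric receptor-Gal4); 24 h dosing; total RNA → oligo(dT) RT → PCR → 6-FAM primer extension → HpaI cut → CE. Positive direction vs DMSO.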
# [4] = biological target: human Vitamin D Receptor (VDR), VDR (gene 7421) (UniProt P11473); test: ATG_VDR_TRANS: Attagene TRANS-FACTORIAL HepG2 Assay for human Vitamin D Receptor (VDR) (AID 2283022)
# Procedure, shortened: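 Multiplexed TRANS reporter in HepG2; 24 h treatment; reporter mRNA by RT-PCR plus capillary electrophoresis; upregulation scored relative to DMSO.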
# [5] = ATG_XTT_Cytotoxicity: Cytotoxicity Assessment in the Attagene TRANS-FACTORIAL HepG2 Assay (AID 2283584);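 on AC50: XTT signal for cell number as viability in transfected HepG2 cells; cells exposed to compound for 24 h before reading; active means loss of viability signal versus DMSO baseline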
# Procedure, shortened: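 24 h chemical exposure of reporter-transfected HepG2; XTT signal loss vs DMSO indicates cytotoxicity.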
# [6] = biological target: Retinoic acid receptor RXR-alpha (Homo sapiens) (UniProt P19793); test: ATG_RXRa_TRANS: Attagene TRANS-FACTORIAL HepG2 Assay for human Retinoid X Receptor alpha (RXRa) (AID 2283012)
# Procedure, shortened: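 Chimeric NR-GAL4 trans-activation in HepG2, 24 h treatment; reporter transcripts quantified by fluorescence on capillary electrophoresis, analysed for upward change from DMSO.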
# [7] = biological target: Cellular tumor antigen p53 (Homo sapiens) (UniProt P04637); test: TOX21_p53_BLA_p2_ratio: Tox21 HCT-116 p53 Agonism Beta-lactamase Assay, Ratio, Phase 2 (AID 2283592)
# Procedure, shortened: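 DMSO-normalized, positive-direction endpoint derived from the 460 nm/530 nm FRET ratio in HCT116 p53 beta-lactamase reporter cells exposed 16 h at 37C and loaded with CCF4-AM for 2 h.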
# [8] = biological target: Cellular tumor antigen p53 (Homo sapiens) (UniProt P04637); test: TOX21_p53_BLA_p3_ratio: Tox21 HCT-116 p53 Agonism Beta-lactamase Assay, Ratio, Phase 3 (AID 2283596)
# Procedure, shortened: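 Cells were seeded at 4000/well, rested 5 h at 37C, then dosed with DMSO compound solutions (217-fold dilution) for 16 h. CCF4-AM substrate was loaded for 2 h at room temperature, and the 460/530 nm emission ratio was fitted for gain of signal versus DMSO.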
# [9] = biological target: Cellular tumor antigen p53 (Homo sapiens) (UniProt P04637); test: TOX21_p53_BLA_p5_ratio: Tox21 HCT-116 p53 Agonism Beta-lactamase Assay, Ratio, Phase 5 (AID 2283599)
# Procedure, shortened: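 Beta-lactamase reporter ratio (blue 460 nm over green 530 nm, 405 nm excitation) after 2 h CCF4-AM loading, in HCT-116 cells exposed 16 h at 37 C to compounds pinned at 217-fold dilution. Increases relative to DMSO baseline scored.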
# [10] = ATG_M_06_TRANS: Attagene TRANS-FACTORIAL HepG2 Assay for M06 Transcription Factor (Internal Marker) (AID 2282983); settings: HepG2 Attagene TRANS M06 internal marker reporter;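 further: potency for rise in reporter mRNA above DMSO baseline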
# Procedure, shortened: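 Multi-reporter-transfected HepG2, 24 h treatment; reporter transcripts quantified via RT-PCR, primer-extension labelling and CE. DMSO-normalized gain-of-signal fit.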
# [11] = biological target: Estrogen receptor (Homo sapiens) (UniProt P03372); test: NVS_NR_hER: NovaScreen (NVS) Nuclear Receptor Binding Assay for human Estrogen Receptor (ER) (AID 2283348)
# Procedure, shortened: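 Cell-free MCF7-derived ER preparation, specific radioligand displaced by test compound, read by scintillation counting 18 h post-dosing. Duplicate single-point 25 uM screen, then concentration-response confirmation; DMSO baseline.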
# [12] = biological target: mouse Estrogen Receptor alpha (Era), Esr1 (gene 13982) (UniProt P19785); test: NVS_NR_mERa: NovaScreen (NVS) Nuclear Receptor Binding Assay for mouse Estrogen Receptor alpha (Era) (AID 2283378);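 further: hit means loss of bound radioligand signal relative to DMSO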
# Procedure, shortened: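 Measurements come from scintillation counting after filtration, taken 18 hours after chemicals were added to a cell-free mouse Era preparation with radioligand. Screening was duplicate at 25 uM, with concurrent positive and negative controls and confirmatory concentration series for actives.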
# [13] = TOX21_p53_BLA_p5_viability: Viability Assessment in the Tox21 HCT-116 p53 Agonism Beta-lactamase Assay, Phase 5 (AID 2283600)
# Procedure, shortened: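 Here cell health was gauged by ATP levels in wells holding 4000 cells, each treated 16 h with DMSO-delivered compounds at 217-fold dilution; reduced luminescence marked toxicity.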
# [14] = biological target: Cellular tumor antigen p53 (Homo sapiens) (UniProt P04637); test: TOX21_p53_BLA_p4_ratio: Tox21 HCT-116 p53 Agonism Beta-lactamase Assay, Ratio, Phase 4 (AID 2283601)
# Procedure, shortened: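 Signal is the blue/green (460nm/530nm) ratio of cleaved versus uncleaved CCF4-AM substrate, read after 2 h substrate loading. Cells were HCT116 carrying the p53-responsive beta-lactamase reporter, dosed 16 h at 37C, 5% CO2; CellTiter-Glo measured in parallel.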
# [15] = biological target: Estrogen-related receptor gamma (Homo sapiens) (UniProt P62508); test: ATG_ERRg_TRANS: Attagene TRANS-FACTORIAL HepG2 Assay for human Estrogen-Related Receptor gamma (ERRg) (AID 2282977); settings: HepG2 Attagene TRANS reporter, ERRg transactivation;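 further: hits increase reporter signal over DMSO so potencies reflect activators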
# Procedure, shortened: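 Exogenous NR-Gal4 chimera activity was assessed in HepG2 cells bearing transfected GAL4-UAS reporters. After 24 h dosing, total RNA underwent RT-PCR, fluorescent primer extension and HpaI digestion before capillary electrophoresis, with gain of signal scored against DMSO.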
# [16] = biological target: Bile acid receptor (Homo sapiens) (UniProt Q96RI1); test: ATG_FXR_TRANS: Attagene TRANS-FACTORIAL HepG2 Assay for Farnesoid X Receptor (FXR) (AID 2282979); settings: HepG2 Attagene TRANS FXR-GAL4 reporter transcription;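 further: hits raise reporter mRNA above DMSO so AC50 marks FXR activation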
# Procedure, shortened: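 After 24 h chemical treatment of transfected HepG2 cells, GAL4-UAS reporter transcripts driven by an exogenous FXR-GAL4 fusion were measured by RT-PCR and capillary electrophoresis. Increases over DMSO were fitted.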
# [17] = ACEA_ER_AUC_viability: ACEA Biosciences xCELLigence Real-Time Cell Analysis on Estrogen Receptor Agonism for Viability (AID 2283782);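 further: hit means loss of impedance signal meaning reduced cell growth or viability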
# Procedure, shortened: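 Viability endpoint: reduced impedance area under the curve relative to DMSO, recorded by real-time electrode sensing over ~80 h of continuous exposure. Duplicate plates of T47D in hormone-depleted medium; eight concentrations, 1:4 dilutions, 100 uM maximum.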
# [18] = biological target: Nuclear receptor subfamily 1 group I member 2 (Homo sapiens) (UniProt O75469); test: ATG_PXR_TRANS: Attagene TRANS-FACTORIAL HepG2 Assay for human Pregnane X Receptor (PXR) (AID 2283008)
# Procedure, shortened: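 HepG2 transfected (FuGene 6) with GAL4-UAS reporter units + PXR-Gal4 chimera; dosed 24 h. Total RNA → oligo(dT) RT → PCR → 6-FAM primer extension → HpaI cut → CE. Gain-of-signal vs DMSO.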
# [19] = biological target: Retinoic acid receptor RXR-alpha (Homo sapiens) (UniProt P19793); test: OT_NURR1_NURR1RXRa_1440: Odyssey Thera (OT) 24-hour HEK293T Protein Complementation Assay for Nurr1/retinoid X receptor (RXR) (AID 2283386)
# Procedure, shortened: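 Cell-based binding reporter: HEK293T cells, 24 h exposure, fluorescence-detected fragment complementation, DMSO as baseline.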
smiles,measurement,setting,value
OCCCO,AC50,[1],inconclusive: 48.4 µM
same,AC50,[6],inconclusive: 99.5 µM
same,AC50,[7],inconclusive: 85.1 µM
same,AC50,[8],inconclusive: 85.1 µM
same,outcome,[9],inactive
C#CC1(O)CC[C@H]2[C@@H]3CCC4=CCCC[C@@H]4[C@H]3CC[C@@]21C (some centres undefined),AC50,[10],inconclusive: 0.00872 µM
same,AC50,[11],active: 0.258 µM
same,AC50,[12],active: 6.99 µM
same,AC50,[5],active: 42.3 µM
same,AC50,[7],active: 87.7 µM
same,AC50,[8],active: 86.1 µM and inconclusive: 10.3 µM
same,AC50,[9],active: 86.1 µM and inconclusive: 10.3 µM
same,AC50,[13],active: 46.1 µM
same,AC50,[14],active: 84.8 µM and inconclusive: 19.6 µM
O=C=Nc1cccc2c(N=C=O)cccc12,outcome,[1],inactive
same,AC50,[15],inconclusive: 0.0494 µM
same,AC50,[16],inconclusive: 15.5 µM
same,AC50,[2],inconclusive: 60 µM
same,outcome,[3],inactive
same,AC50,[6],inconclusive: 60 µM
same,outcome,[17],inactive
CCCCCCCCOC(=O)CCCCCCCCC(=O)OCCCCCCCC,AC50,[2],inconclusive: 0.549 µM
same,AC50,[18],inconclusive: 100 µM
same,outcome,[6],inactive
same,AC50,[4],inconclusive: 0.00825 µM
same,outcome,[19],inactive
same,AC50,[13],inconclusive: 46.1 µM
same,AC50,[14],inconclusive: 46.1 µM
same,AC50,[17],inconclusive: 50 µM
CCC(C)c1ccccc1 (centres undefined),AC50,[1],inconclusive: 182 µM
same,outcome,[16],inactive
same,outcome,[17],inactive
CC(=O)OCC=C(C)CCC=C(C)CCC=C(C)C,AC50,[15],inconclusive: 33.4 µM
same,AC50,[3],inconclusive: 0.35 µM
CC1=CCC(=O)O1,AC50,[15],inconclusive: 100 µM
same,AC50,[18],inconclusive: 100 µM
O[Si](c1ccccc1)(c1ccccc1)c1ccccc1,outcome,[1],inactive
same,AC50,[15],inconclusive: 22.2 µM
same,AC50,[16],active: 85.2 µM
NC(=O)C1CO1 (centres undefined),AC50,[1],inconclusive: 100 µM
same,AC50,[16],inconclusive: 100 µM
same,AC50,[10],inconclusive: 100 µM
same,AC50,[18],inconclusive: 100 µM
same,AC50,[4],inconclusive: 100 µM
CCCCC/C=C\C=C\C(=O)OCC,AC50,[16],inconclusive: 103 µM
same,outcome,[2],inactive
same,AC50,[11],active: 42.7 µM
same,AC50,[12],inconclusive: 26.2 µM
same,AC50,[19],inconclusive: 17.9 µM
same,outcome,[5],inactive
same,AC50,[7],active: 75.6 µM
same,AC50,[9],active: 73.4 µM
same,AC50,[13],active: 47.7 µM
same,AC50,[14],active: 89.9 µM

# At a glance, some entries already given:
smiles,measurement,setting,value
C#CC1(O)CC[C@H]2[C@@H]3CCC4=CCCC[C@@H]4[C@H]3CC[C@@]21C (some centres undefined),AC50,[11],active: 0.258 µM
same,AC50,[12],active: 6.99 µM
same,AC50,[5],active: 42.3 µM
